The other results are listed elsewhere or left out.

Sequences of proteins named here, by UniProt entry; tags and fusion partners are left off. A change or cut given only in a name is not applied to a line headed by its entry.
UniProt Q9UQ53: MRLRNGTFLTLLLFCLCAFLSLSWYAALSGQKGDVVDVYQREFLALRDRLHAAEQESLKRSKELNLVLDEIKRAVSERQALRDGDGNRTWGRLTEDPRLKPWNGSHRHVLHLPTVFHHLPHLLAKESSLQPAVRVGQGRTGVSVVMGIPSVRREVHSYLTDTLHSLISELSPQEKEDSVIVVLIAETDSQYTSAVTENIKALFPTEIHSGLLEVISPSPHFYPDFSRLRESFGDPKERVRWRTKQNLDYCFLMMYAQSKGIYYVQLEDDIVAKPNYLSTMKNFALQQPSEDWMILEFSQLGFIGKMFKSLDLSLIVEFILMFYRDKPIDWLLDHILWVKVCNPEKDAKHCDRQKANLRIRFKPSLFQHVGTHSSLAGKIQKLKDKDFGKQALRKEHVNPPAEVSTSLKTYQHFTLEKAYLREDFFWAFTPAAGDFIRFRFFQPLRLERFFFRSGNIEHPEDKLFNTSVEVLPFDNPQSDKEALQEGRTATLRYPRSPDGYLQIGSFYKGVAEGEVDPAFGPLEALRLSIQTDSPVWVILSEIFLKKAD
UniProt P49736, whole entry, looked up: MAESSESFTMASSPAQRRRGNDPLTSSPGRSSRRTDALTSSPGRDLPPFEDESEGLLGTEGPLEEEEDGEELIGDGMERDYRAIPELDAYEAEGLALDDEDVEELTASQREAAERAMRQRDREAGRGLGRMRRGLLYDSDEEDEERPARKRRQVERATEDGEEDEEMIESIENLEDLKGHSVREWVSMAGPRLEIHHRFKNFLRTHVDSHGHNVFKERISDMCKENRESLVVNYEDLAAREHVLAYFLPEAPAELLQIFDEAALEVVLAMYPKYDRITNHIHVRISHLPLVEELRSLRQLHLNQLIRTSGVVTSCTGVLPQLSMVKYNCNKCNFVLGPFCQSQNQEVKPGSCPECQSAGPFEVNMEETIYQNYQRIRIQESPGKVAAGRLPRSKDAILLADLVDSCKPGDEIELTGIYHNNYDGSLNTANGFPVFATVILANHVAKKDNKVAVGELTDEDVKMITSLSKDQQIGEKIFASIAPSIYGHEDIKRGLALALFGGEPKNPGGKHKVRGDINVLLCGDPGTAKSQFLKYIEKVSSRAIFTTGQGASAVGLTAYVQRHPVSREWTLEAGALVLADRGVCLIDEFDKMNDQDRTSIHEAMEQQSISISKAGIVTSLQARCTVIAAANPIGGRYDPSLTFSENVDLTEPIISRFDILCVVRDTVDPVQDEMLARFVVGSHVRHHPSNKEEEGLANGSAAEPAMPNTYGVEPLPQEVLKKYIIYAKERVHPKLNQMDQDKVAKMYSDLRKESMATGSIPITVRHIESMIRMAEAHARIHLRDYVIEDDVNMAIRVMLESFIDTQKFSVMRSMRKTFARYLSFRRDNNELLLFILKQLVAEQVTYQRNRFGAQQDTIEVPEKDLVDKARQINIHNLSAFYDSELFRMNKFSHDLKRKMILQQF
UniProt Q15528: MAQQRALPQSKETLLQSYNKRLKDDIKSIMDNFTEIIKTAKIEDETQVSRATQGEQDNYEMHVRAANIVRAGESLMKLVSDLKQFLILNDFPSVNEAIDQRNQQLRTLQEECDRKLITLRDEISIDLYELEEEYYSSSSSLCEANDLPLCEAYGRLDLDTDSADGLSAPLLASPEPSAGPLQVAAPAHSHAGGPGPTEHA
UniProt P23368: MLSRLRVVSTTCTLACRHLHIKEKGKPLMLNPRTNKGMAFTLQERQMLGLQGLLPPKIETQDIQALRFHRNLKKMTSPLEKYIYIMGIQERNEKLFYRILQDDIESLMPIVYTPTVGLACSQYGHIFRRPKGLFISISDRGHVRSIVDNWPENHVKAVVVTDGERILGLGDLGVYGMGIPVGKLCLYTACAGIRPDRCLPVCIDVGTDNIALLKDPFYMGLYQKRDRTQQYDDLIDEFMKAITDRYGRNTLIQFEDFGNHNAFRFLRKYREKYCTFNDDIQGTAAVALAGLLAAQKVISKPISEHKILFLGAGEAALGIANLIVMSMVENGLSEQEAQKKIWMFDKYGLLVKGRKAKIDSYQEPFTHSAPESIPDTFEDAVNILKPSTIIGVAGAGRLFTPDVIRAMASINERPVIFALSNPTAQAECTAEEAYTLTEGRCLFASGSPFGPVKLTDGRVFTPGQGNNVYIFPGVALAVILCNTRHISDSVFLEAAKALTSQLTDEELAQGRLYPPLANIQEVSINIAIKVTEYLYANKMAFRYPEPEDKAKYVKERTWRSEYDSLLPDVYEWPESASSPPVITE
UniProt Q14676: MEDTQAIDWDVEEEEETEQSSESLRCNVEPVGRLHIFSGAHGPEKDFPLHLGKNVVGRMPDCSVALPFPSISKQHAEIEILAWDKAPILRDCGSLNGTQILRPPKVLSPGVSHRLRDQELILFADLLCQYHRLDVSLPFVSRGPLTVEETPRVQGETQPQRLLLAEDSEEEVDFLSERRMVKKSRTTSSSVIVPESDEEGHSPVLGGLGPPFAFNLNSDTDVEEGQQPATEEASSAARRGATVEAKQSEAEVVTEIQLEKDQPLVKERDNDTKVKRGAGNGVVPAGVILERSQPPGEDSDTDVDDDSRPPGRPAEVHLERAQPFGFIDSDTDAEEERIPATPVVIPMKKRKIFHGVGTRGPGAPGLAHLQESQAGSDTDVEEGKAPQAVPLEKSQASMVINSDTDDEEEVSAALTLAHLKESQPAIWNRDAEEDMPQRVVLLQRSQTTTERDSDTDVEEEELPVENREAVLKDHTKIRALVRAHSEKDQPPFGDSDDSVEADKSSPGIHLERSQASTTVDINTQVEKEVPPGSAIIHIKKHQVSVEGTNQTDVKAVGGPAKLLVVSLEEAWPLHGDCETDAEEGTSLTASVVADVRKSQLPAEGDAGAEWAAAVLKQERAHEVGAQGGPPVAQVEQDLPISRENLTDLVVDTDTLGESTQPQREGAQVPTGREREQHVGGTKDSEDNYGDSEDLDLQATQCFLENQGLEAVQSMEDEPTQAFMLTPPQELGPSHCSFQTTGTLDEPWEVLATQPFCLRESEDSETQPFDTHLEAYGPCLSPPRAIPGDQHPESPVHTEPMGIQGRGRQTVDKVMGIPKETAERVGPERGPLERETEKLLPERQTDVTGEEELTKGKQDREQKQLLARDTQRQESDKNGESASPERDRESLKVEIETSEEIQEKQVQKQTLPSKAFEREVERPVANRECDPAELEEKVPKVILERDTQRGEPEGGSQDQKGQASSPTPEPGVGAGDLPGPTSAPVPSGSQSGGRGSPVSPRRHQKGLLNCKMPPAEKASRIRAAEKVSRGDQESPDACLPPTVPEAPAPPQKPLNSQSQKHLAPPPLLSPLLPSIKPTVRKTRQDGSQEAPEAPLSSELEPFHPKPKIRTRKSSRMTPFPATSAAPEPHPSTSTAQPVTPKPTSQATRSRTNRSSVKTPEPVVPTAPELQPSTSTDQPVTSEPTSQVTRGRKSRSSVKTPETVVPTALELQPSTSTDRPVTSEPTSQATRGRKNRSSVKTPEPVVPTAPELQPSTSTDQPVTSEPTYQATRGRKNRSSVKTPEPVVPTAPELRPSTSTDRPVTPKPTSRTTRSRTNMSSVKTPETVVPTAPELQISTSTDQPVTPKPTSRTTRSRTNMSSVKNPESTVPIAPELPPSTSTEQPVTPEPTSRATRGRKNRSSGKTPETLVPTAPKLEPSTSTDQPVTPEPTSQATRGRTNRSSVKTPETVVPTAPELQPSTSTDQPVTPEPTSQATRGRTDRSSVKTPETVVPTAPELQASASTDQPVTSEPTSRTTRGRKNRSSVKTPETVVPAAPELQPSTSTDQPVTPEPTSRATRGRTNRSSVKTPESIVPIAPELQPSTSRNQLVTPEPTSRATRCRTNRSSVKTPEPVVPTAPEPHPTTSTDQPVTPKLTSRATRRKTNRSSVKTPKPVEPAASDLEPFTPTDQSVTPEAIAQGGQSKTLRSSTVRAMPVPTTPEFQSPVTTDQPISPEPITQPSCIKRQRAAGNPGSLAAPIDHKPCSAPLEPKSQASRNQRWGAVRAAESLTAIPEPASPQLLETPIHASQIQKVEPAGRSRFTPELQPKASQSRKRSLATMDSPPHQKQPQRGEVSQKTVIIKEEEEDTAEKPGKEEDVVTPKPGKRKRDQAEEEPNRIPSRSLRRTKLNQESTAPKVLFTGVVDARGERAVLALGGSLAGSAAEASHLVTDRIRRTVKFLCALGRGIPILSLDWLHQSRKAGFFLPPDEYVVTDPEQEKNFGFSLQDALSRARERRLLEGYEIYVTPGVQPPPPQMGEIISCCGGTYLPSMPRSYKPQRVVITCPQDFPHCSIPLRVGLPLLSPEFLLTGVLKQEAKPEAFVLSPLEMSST
UniProt P43243: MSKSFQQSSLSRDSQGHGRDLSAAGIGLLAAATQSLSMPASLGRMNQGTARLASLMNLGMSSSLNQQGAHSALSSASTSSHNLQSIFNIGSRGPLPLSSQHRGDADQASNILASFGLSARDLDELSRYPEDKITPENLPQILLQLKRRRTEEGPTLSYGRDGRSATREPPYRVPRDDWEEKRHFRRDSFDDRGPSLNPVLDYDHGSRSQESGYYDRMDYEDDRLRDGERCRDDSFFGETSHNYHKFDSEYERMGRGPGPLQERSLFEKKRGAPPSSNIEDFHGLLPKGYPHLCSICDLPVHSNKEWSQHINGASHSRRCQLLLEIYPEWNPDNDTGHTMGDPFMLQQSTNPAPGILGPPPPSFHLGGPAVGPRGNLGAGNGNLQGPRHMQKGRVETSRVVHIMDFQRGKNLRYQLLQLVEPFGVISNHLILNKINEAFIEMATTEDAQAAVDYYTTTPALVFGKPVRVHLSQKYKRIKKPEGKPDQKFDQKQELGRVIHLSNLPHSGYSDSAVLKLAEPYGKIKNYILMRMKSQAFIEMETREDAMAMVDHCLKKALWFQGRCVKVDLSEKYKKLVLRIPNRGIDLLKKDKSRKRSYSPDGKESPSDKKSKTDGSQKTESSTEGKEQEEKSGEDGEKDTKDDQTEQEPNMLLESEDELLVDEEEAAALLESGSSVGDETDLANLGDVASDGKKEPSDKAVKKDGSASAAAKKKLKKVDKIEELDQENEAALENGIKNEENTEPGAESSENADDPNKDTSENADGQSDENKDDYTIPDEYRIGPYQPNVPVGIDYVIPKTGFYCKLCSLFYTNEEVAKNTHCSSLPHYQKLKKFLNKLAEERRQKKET
UniProt Q8NI22: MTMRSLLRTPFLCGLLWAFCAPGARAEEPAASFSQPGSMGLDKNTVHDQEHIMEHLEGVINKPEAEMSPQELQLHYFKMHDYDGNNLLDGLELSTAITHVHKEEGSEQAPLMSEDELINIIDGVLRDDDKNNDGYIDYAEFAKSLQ
UniProt Q08431: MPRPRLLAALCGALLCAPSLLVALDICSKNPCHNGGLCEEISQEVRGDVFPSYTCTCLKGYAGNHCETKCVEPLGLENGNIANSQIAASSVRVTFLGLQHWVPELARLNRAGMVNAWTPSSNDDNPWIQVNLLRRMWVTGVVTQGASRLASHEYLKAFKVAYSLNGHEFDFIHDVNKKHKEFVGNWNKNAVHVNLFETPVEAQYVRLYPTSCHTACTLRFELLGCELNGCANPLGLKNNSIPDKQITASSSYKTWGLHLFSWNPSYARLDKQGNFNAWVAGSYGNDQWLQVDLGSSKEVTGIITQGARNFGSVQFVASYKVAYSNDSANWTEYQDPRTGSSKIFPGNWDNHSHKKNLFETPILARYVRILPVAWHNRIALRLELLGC
UniProt Q14566: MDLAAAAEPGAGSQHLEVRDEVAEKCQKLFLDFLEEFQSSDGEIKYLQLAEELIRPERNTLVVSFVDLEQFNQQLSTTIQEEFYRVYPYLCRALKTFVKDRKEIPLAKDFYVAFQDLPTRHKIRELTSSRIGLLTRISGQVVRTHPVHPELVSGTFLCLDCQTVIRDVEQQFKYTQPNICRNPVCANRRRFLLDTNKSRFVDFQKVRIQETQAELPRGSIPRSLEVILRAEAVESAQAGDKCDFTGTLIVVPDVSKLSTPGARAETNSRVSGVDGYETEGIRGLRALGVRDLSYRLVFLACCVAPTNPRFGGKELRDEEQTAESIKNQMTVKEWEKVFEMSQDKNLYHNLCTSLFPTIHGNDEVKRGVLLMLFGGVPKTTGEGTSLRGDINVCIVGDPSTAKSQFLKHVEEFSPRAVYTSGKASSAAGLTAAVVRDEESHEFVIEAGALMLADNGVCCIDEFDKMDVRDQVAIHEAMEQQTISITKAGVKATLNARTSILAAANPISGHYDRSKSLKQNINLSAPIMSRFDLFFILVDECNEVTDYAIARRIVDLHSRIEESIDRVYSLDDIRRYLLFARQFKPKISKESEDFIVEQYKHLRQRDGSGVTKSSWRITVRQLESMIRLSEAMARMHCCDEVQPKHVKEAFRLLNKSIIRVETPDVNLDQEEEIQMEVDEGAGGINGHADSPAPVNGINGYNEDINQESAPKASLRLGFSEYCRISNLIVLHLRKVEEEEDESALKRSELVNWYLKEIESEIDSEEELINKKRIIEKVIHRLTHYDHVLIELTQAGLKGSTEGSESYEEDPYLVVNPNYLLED

Compound in the first test: C1=CC(=C(C=C1Cl)C2=NC3=NC=CN=C3C(=N2)NC4=CC=NC=C4)F
The experiment in a line: log2 fold change, soluble protein after heating vs DMSO (PISA); higher = thermal stabilisation; K562 cells, 10 uM, 30 min; active = over 0.2 and 3.5 SD of the protein, either way, in both replicates (recomputed). Summed up:
(§1)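 For each measurement, 10 μM compound was applied for 30 min to K562 cells at 2×10^6 cells/mL. Aliquots were heated for 3 min across 48°C-58°C, pooled, and extracted in PBS with 0.5% NP-40 at 4°C; the supernatant after 21,000xg for 90 min was soluble protein. This was quantified by TMTpro 16plex LC-MS/MS with channel sums equalised, and thermal stability was reported relative to control samples from duplicates, on a log2 fold-change scale.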
Turning to MGAT4B isoform 3 (UniProt Q9UQ53), the log2 fold change is inactive: 0.065.

On to MBNL1 (UniProt Q9NR56), for which the log2 fold change is inactive: 0.034.

For MEF2D (UniProt Q14814), the log2 fold change was inactive: -0.033.

On to MFSD10 (UniProt Q14728), for which the log2 fold change was inactive: 0.08.

For MCAM (UniProt P43121), the log2 fold change was inactive: 0.008.

In the case of METTL1 (UniProt Q9UBP6), the log2 fold change was inactive: 0.101.

For the target MECP2 isoform 2 (UniProt P51608), the log2 fold change is inactive: -0.39.

MCM2 (UniProt P49736): the log2 fold change is inactive: 0.064.

In the case of MCM3 isoform 2 (UniProt P25205), the log2 fold change is inactive: 0.079.

For METTL21A (UniProt Q8WXB1), the log2 fold change was inactive: 0.016.

On to MDN1 (UniProt Q9NU22), for which the log2 fold change was inactive: 0.02.

For the target MGAT1 (UniProt P26572), the log2 fold change was inactive: -0.033.

For the target METAP1D (UniProt Q6UB28), the log2 fold change was inactive: -0.02.

With MED20 (UniProt Q9H944), the log2 fold change was inactive: 0.043.

Regarding METTL14 (UniProt Q9HCE5), the log2 fold change was inactive: 0.031.

Take MEAK7 (UniProt Q6P9B6): the log2 fold change is inactive: 0.023.

On to MCRIP1 (UniProt I3L4Q0), for which the log2 fold change was inactive: 0.001.

On to MCM5 (UniProt P33992), for which the log2 fold change was inactive: 0.065.

Consider MCUB (UniProt Q9NWR8), for which the log2 fold change was inactive: 0.063.

Regarding MED22 (UniProt Q15528), the log2 fold change was inactive: -0.013.

For the target ME2 (UniProt P23368), the log2 fold change was inactive: 0.01.

As for MBOAT1 (UniProt Q6ZNC8), the log2 fold change was inactive: 0.034.

As for MDC1 (UniProt Q14676), the log2 fold change was inactive: -0.184.

Consider MCMBP (UniProt Q9BTE3), for which the log2 fold change was inactive: 0.07.

Take MATR3 (UniProt P43243): the log2 fold change is inactive: -0.088.

For the target MFN1 (UniProt Q8IWA4), the log2 fold change was inactive: 0.042.

For the target MAST4 (UniProt O15021), the log2 fold change was inactive: 0.082.

Consider MED18 (UniProt Q9BUE0), for which the log2 fold change is inactive: 0.072.

MAT2A (UniProt P31153): the log2 fold change is inactive: 0.021.

For MAVS (UniProt Q7Z434), the log2 fold change is inactive: 0.061.

As for MEMO1 (UniProt Q9Y316), the log2 fold change was inactive: 0.056.

As to MGST3 (UniProt O14880), the log2 fold change is inactive: 0.013.

Take MED15 (UniProt Q96RN5): the log2 fold change was inactive: 0.

Take MCFD2 (UniProt Q8NI22): the log2 fold change is inactive: 0.08.

For the target MARS2 (UniProt Q96GW9), the log2 fold change was inactive: 0.025.

Take MED14 (UniProt O60244): the log2 fold change is inactive: -0.155.

MFGE8 (UniProt Q08431): the log2 fold change is inactive: -0.149.

For MCTS1 isoform 3 (UniProt Q9ULC4), the log2 fold change is inactive: 0.015.

Regarding MCM6 (UniProt Q14566), the log2 fold change was inactive: 0.054.

Compound in the next test: C1=CC(=CC=C1C2=NC3=C(N2)C=C(C=C3)C(=O)N)OC4=CC=C(C=C4)Cl
Described as above. Summed up: as §1
Consider MGAT4B isoform 3 (UniProt Q9UQ53), for which the log2 fold change is inactive: 0.005.

For the target MBNL1 (UniProt Q9NR56), the log2 fold change is inactive: -0.052.

On to MEF2D (UniProt Q14814), for which the log2 fold change was inactive: 0.034.

In the case of MFSD10 (UniProt Q14728), the log2 fold change is inactive: 0.061.

Consider MCAM (UniProt P43121), for which the log2 fold change is inactive: 0.002.

Consider METTL1 (UniProt Q9UBP6), for which the log2 fold change is inactive: 0.032.

For the target MECP2 isoform 2 (UniProt P51608), the log2 fold change was inactive: 0.057.

As to MCM2 (UniProt P49736), the log2 fold change was inactive: 0.009.

MCM3 isoform 2 (UniProt P25205): the log2 fold change is inactive: 0.007.

METTL21A (UniProt Q8WXB1): the log2 fold change is inactive: 0.084.

For MDN1 (UniProt Q9NU22), the log2 fold change was inactive: -0.025.

On to MGAT1 (UniProt P26572), for which the log2 fold change was inactive: 0.021.

Take METAP1D (UniProt Q6UB28): the log2 fold change is inactive: 0.025.

For MED20 (UniProt Q9H944), the log2 fold change is inactive: 0.02.

As for METTL14 (UniProt Q9HCE5), the log2 fold change is inactive: 0.008.

Take MEAK7 (UniProt Q6P9B6): the log2 fold change was inactive: 0.054.

Regarding MCRIP1 (UniProt I3L4Q0), the log2 fold change was inactive: 0.002.

MCM5 (UniProt P33992): the log2 fold change is inactive: -0.005.

As for MCUB (UniProt Q9NWR8), the log2 fold change was inactive: 0.039.

On to MED22 (UniProt Q15528), for which the log2 fold change was inactive: -0.036.

Turning to ME2 (UniProt P23368), the log2 fold change was inactive: -0.078.

As to MBOAT1 (UniProt Q6ZNC8), the log2 fold change is inactive: -0.021.

Consider MDC1 (UniProt Q14676), for which the log2 fold change was inactive: 0.025.

As to MCMBP (UniProt Q9BTE3), the log2 fold change was inactive: 0.034.

Take MATR3 (UniProt P43243): the log2 fold change was inactive: 0.164.

As for MFN1 (UniProt Q8IWA4), the log2 fold change is inactive: 0.001.

As to MAST4 (UniProt O15021), the log2 fold change is inactive: 0.054.

On to MED18 (UniProt Q9BUE0), for which the log2 fold change was inactive: 0.014.

With MAT2A (UniProt P31153), the log2 fold change was inactive: -0.024.

Take MAVS (UniProt Q7Z434): the log2 fold change was inactive: -0.03.

MEMO1 (UniProt Q9Y316): the log2 fold change was inactive: 0.039.

As to MGST3 (UniProt O14880), the log2 fold change was inactive: 0.003.

Regarding MED15 (UniProt Q96RN5), the log2 fold change is inactive: 0.011.

With MCFD2 (UniProt Q8NI22), the log2 fold change was inactive: 0.03.

As to MARS2 (UniProt Q96GW9), the log2 fold change is inactive: 0.018.

For the target MED14 (UniProt O60244), the log2 fold change was inactive: 0.059.

Turning to MFGE8 (UniProt Q08431), the log2 fold change was inactive: 0.045.

For the target MCTS1 isoform 3 (UniProt Q9ULC4), the log2 fold change was inactive: 0.006.

For MCM6 (UniProt Q14566), the log2 fold change was inactive: 0.003.

The record behind these values is the supplement of paper PMC10849652.
